This assay deals with INS-1E rat beta cells, no cytokines, CellTiter-Glo ATP, 48 h. The assay is described as follows: ATP level change in INS-1E without cytokines, dose response, counter-screen for beta-cell apoptosis protection project, INS-1E rat cells, ATP luminescence, cherry pick (AID 463229).

We go through one molecule from PubChem BioAssay AID463229 (Broad Institute, 2010).

In the case of `COc1ccccc1C(=O)NNC(=S)NC(=O)c1ccco1`, the AC50 was 11.8 µM.
